# Results deposited as PubChem BioAssay AID652243 (Drosophila RNAi Screening Center, 2013).
# Test: 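Fly regulators of androgen-dependent reporter output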 (primary screen)
# Cells: Drosophila S2R+ cells
# Reagent: long dsRNA against Drosophila genes
# Duration: 72 h (48 h, then 24 h hormone)
# Conditions: synthetic androgen R1881 at 10 nM for 24 h
# Measured: 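Firefly light from an androgen-responsive reporter and Renilla control light per well, raw and unnormalised, for each of two replicates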
# Reading the numbers: firefly reporter light: higher = more light from androgen-responsive reporter; Renilla control light: higher = more constitutive control signal (cell number, transfection)
# Rule for the call: 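Hit when the log firefly-to-Renilla ratio dropped or increased by a fixed fold versus the mean of GFP or LacZ controls across duplicate plates; lowering cut given as 1.5 and as 3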
# Meaning of the calls: active = hit: reporter lowered or raised; inactive = no hit
# The screen tested about 24,000 reagents; this is an unselected part of those that have a named target and a result. In the full data, 246 (1%) got an active call. 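Plates not normalised; calls are printed but the firefly/Renilla ratio behind them is not deposited; fold cut for lowering reported inconsistently.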 Raw values are not corrected between plates. Reagents against one gene are numbered here. A plus sign joins genes that one reagent is predicted to hit. No sequences are given here. The record does not give: the amount of reagent.
predicted target,dsRNA no.,"firefly reporter light, replicate 1","firefly reporter light, replicate 2","Renilla control light, replicate 1","Renilla control light, replicate 2",Outcome
Grl36a (Gustatory receptor-like 36a),1,4.50e5,3.63e5,2.08e6,2.60e6,inactive
CG15322,1,35810,39282,1.13e5,82263,inactive
CG15322,2,8.86e5,9.17e5,1.17e6,1.68e6,inactive
CG34230,1,7.22e5,7.20e5,1.81e6,1.64e6,inactive
CG13654,1,1.74e5,1.46e5,2.24e6,3.08e6,inactive
CG5577,1,28001,16473,3.66e5,1.87e5,inactive
pzg (putzig),1,89501,50407,1.59e5,2.15e5,inactive
CG31278,1,1.36e5,1.51e5,2.65e6,2.51e6,inactive
asRNA:CR42871 + CG6661,1,5.37e5,5.38e5,1.64e6,1.51e6,inactive
asRNA:CR42871 + CG6661,2,7.66e5,7.22e5,1.66e6,1.31e6,inactive
CG17652,1,1.23e5,1.14e5,1.08e6,8.93e5,inactive
ems (empty spiracles),1,8.58e5,4.22e5,7.93e5,6.47e5,inactive
EMC2B + EMC2A,1,1.97e5,2.17e5,3.67e6,3.23e6,inactive
CG8500,1,1.64e5,1.92e5,2.89e6,3.23e6,inactive
CG8500,2,6.33e5,3.70e5,9.00e5,5.63e5,inactive
eyg (eyegone),1,1.04e6,1.56e6,2.13e6,2.32e6,inactive
eyg (eyegone),2,3.26e5,2.39e5,5.38e5,4.86e5,inactive
CG8929,1,8.28e5,4.61e5,1.18e6,9.67e5,inactive
CG8929,2,4.82e5,7.83e5,8.62e5,1.90e6,inactive
Est-P (Esterase P),1,1.46e5,1.50e5,1.55e6,1.72e6,inactive
Est-P (Esterase P),2,4.38e5,4.32e5,1.66e6,1.38e6,inactive
PNUTS (Phosphatase 1 nuclear targeting subunit),1,3.77e5,5.04e5,2.62e6,2.44e6,active
PNUTS (Phosphatase 1 nuclear targeting subunit),2,2.64e5,2.88e5,6.64e5,6.40e5,active
Pfdn5 (Prefoldin 5),1,1.16e5,87305,1.09e6,1.03e6,inactive
CG11398,1,1.07e5,74177,1.79e6,1.55e6,inactive
Ance (Angiotensin converting enzyme),1,1.57e6,9.55e5,7.86e5,1.34e6,inactive
Cpr49Aa (Cuticular protein 49Aa),1,5.60e5,3.68e5,2.07e6,1.87e6,inactive
Pino (Pinocchio),1,20330,20357,1.10e5,1.26e5,inactive
Pino (Pinocchio),2,1.16e6,1.11e6,3.05e6,2.64e6,inactive
modSP (modular serine protease),1,1.64e5,2.03e5,2.97e6,3.29e6,inactive
modSP (modular serine protease),2,84906,69212,1.89e6,1.69e6,inactive
modSP (modular serine protease),3,6.76e5,5.11e5,2.10e6,2.23e6,inactive
crb (crumbs),1,70825,48526,4.50e5,4.82e5,inactive
crb (crumbs),2,8.03e5,5.13e5,2.12e6,1.54e6,inactive
CG12679,1,3.45e5,1.70e5,1.08e6,5.09e5,inactive
CG12679,2,3.96e5,5.80e5,1.72e6,1.72e6,inactive
CG33461,1,6.92e5,9.19e5,1.52e6,2.37e6,inactive
CG33461,2,4.13e5,3.79e5,6.75e5,5.88e5,inactive
C901,1,2.70e5,2.43e5,2.18e6,2.64e6,inactive
C901,2,5.37e5,9.09e5,9.27e5,1.45e6,inactive

Looked up above.
pzg (putzig), firefly reporter light, replicate 1 → 89501
EMC2B + EMC2A, firefly reporter light, replicate 2 = 2.17e5
Entry of C901 #1 under “firefly reporter light, replicate 2”: 2.43e5
